Test results: article PMC3556083
Results are given in words; binding and its absence hold for the method and conditions named. Binding seen in cells or lysates may run through a third protein. A yes stands for co-enrichment or nearness to the bait. Other partners may have been found.

B1: HMGCL (protein, UniProt P97519 28-325)
chain: TLPKRVKIVEVGPRDGLQNEKSIVPTPVKIKLIDMLSEAGLPVIEATSFVSPKWVPQMADHSDVLKGIQKFPGINYPVLTPNMKGFEEAVAAGAKEVSIFGAASELFTRKNVNCSIEESFQRFDGVMQAARAASISVRGYVSCALGCPYEGKVSPAKVAEVAKKLYSMGCYEISLGDTIGVGTPGLMKDMLTAVLHEVPVAALAVHCHDTYGQALANTLVALQMGVSVVDSSVAGLGGCPYAKGASGNLATEDLVYMLTGLGIHTGVNLQKLLEAGDFICQALNRKTSSKVAQATCKL
B2: ALDH2 (protein, UniProt P11884 20-519)
chain: SAAATSAVPAPNQQPEVFCNQIFINNEWHDAVSKKTFPTVNPSTGEVICQVAEGNKEDVDKAVKAAQAAFQLGSPWRRMDASDRGRLLYRLADLIERDRTYLAALETLDNGKPYVISYLVDLDMVLKCLRYYAGWADKYHGKTIPIDGDFFSYTRHEPVGVCGQIIPWNFPLLMQAWKLGPALATGNVVVMKVAEQTPLTALYVANLIKEAGFPPGVVNIVPGFGPTAGAAIASHEDVDKVAFTGSTEVGHLIQVAAGSSNLKRVTLELGGKSPNIIMSDADMDWAVEQAHFALFFNQGQCCCAGSRTFVQEDVYDEFVERSVARAKSRVVGNPFDSRTEQGPQVDETQFKKILGYIKSGQQEGAKLLCGGGAAADRGYFIQPTVFGDVKDGMTIAKEEIFGPVMQILKFKTIEEVVGRANNSKYGLAAAVFTKDLDKANYLSQALQAGTVWINCYDVFGAQSPFGGYKMSGSGRELGEYGLQAYTEVKTVTVKVPQKNS
B3: MLYCD (protein, UniProt Q920F5 39-492)
chain: MDELLRRAVPPTPAYELREKTPAPAEGQCADFVSFYGGLAEAAQRAELLGRLAQGFGVDHGQVAEQSAGVLQLRQQSREAAVLLQAEDRLRYALVPRYRGLFHHISKLDGGVRFLVQLRADLLEAQALKLVEGPHVREMNGVLKSMLSEWFSSGFLNLERVTWHSPCEVLQKISECEAVHPVKNWMDMKRRVGPYRRCYFFSHCSTPGDPLVVLHVALTGDISNNIQSIVKECPPSETEEKNRIAAAVFYSISLTQQGLQGVELGTFLIKRVVKELQKEFPHLGAFSSLSPIPGFTKWLLGLLNVQGKEYGRNELFTDSECKEIAEVTGDPVHESLKGLLSSGEWAKSEKLAQALQGPLMRLCAWYLYGEKHRGYALNPVANFHLQNGAVMWRINWMADSSLKGLTSSCGLMVNYRYYLEETGPNSISYLGSKNIKASEQILSLVAQFQSNSKL
B4: ECI1 (protein, UniProt P23965 29-289)
chain: FSNKRVLVEKEGEAGIAVMKFKNPPVNSLSLEFLTEFVISLEKLENDKSIRGVILTSERPGIFSAGLDLMEMYGRNPAHYAEYWKAVQELWLRLYLSNLTLISAINGASPAGGCLMALTCDYRIMADNSKYTIGLNESLLGIVAPFWLKDNYVNTIGHRAAERALQLGTLFPPAEALKVGLVDEVVPEDQVHSKARSVMAKWFTIPDHSRQLTKSMMRKATADNLIKQREADIQNFTSFISRDSIQKSLHVYLEKLKQKKG
B5: ECHS1 (protein, UniProt P14604 30-290)
chain: GANFQYIITEKKGKNSSVGLIQLNRPKALNALCNGLIEELNQALETFEEDPAVGAIVLTGGEKAFAAGADIKEMQNRTFQDCYSGKFLSHWDHITRIKKPVIAAVNGYALGGGCELAMMCDIIYAGEKAQFGQPEILLGTIPGAGGTQRLTRAVGKSLAMEMVLTGDRISAQDAKQAGLVSKIFPVETLVEEAIQCAEKIANNSKIIVAMAKESVNAAFEMTLTEGNKLEKKLFYSTFATDDRREGMSAFVEKRKANFKDH

target: β2-adrenergic receptor (UniProt P07550); assay: affinity purification with mass spectrometry; purified Flag-β2AR in rHDL immobilised on M1 anti-Flag resin, occupied by 50 µM BI-167107 (full agonist) or 50 µM carazolol (inverse agonist); adult rat heart cytosol (10 mg/ml, 4 mM CaCl2) overnight at 4°C; eluted with FLAG peptide and EDTA; gel slices, LC-MS; proteins of the M1 resin, empty rHDL and Ni-NTA controls subtracted; hits of either or both samples; only the target purified

binding | Binder
binds | B1
binds | B2
binds | B3
binds | B4
binds | B5
